# Assay results

Data taken from PubChem BioAssay AID912, deposited by NCATS (2007).

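A cell-based FRET test of anthrax lethal toxin entry, tracked through the 460 nm emission signal; the cell line is not named here. Each compound was tested as a concentration series from about 0.0005 to 40 µM. The number is the fitted AC50 of the 460 nm signal alone; lower values mean a more potent effect. A falling signal goes with compounds filed as inhibitors or cytotoxic, a rising one with activators or fluorescent compounds (inferred from the filed classes).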

Values are in nM. Common to all entries: measured here: 460 nm channel. This is a side read-out of the assay, for part of the compounds, not drawn at random. A potency from a partial, single-point or poor curve is only a rough figure. The first word of each remark tells which way the curve ran; it can be opposite to the aim of the assay.

compound | AC50 (nM) | remark
Fc1ccc(-c2cc3nc(-c4ccccc4)cc(N4CCN(CCN5CCOCC5)CC4)n3n2)cc1 | 10000 | rising, partial curve
COc1ccc(CCn2c(SCC(=O)Nc3cc(C)on3)nc3ccsc3c2=O)cc1OC | 5012 | rising, partial curve, poor fit
CCOc1ccc(-c2nc(C#N)c(NCc3ccc4c(c3)OCO4)o2)cc1 | 6310 | falling, partial curve
O=c1[nH]c2cc(Cl)cc(Cl)c2[nH]c1=O | 5012 | rising, single point
CC(C)(CO)Cc1cc(C(C)(C)C)c(O)c(C(C)(C)C)c1 | 25118 | falling, partial curve
COC(=O)C1=C(C)NC(C)=C([N+](=O)[O-])[C@@H]1c1ccccc1C(F)(F)F | 12589 | falling, single point
Cc1oc(-c2ccc(Cl)cc2)nc1CN1CCC(C(=O)NCCCN2CCOCC2)CC1 | 3981 | falling, full curve, poor fit
Nc1c(C(=O)NCCN2CCOCC2)c2nc3ccccc3nc2n1CCc1ccccc1F | 10000 | rising, partial curve
O=C(Nc1ccc2c(c1)OCO2)C1Cc2ccccc2CN1S(=O)(=O)c1cccs1 (stereo unspecified) | 12589 | falling, single point
N=c1c(C(=O)NCc2ccc(F)cc2)cc2c(=O)n3ccccc3nc2n1CC1CCCO1 (stereo unspecified) | 1585 | rising, partial curve
Cc1onc(-c2c(Cl)cccc2Cl)c1C(=O)Nc1ccc2c(c1)OCO2 | 3162 | falling, partial curve
CCOC(=O)c1cn(CC)c2cc(N3CCCCC3)c(F)cc2c1=O | 3.162 | falling, full curve, poor fit
S=c1nc(-c2ccccc2)n(CCCN2CCOCC2)c2c1CCCC2 | 7943 | rising, partial curve
CCCCCCCCCCCC1=C(O)C(=O)C=C(O)C1=O | 1995 | falling, full curve
Cc1cc(S(=O)(=O)N2CCN(c3ccccc3C)CC2)ccc1F | 125.9 | falling, full curve, poor fit
Cc1ccc(S(=O)(=O)NCCC(=O)NCc2ccc3c(c2)OCO3)cc1C | 3162 | falling, partial curve
O=S(=O)(c1ccccc1)N1CCC2(CCCN(Cc3cc(C(F)(F)F)cc(C(F)(F)F)c3)C2)CC1 | 501.2 | falling, full curve, poor fit
O=C(Nc1ccccc1)N1CCCC2(CCN(C(=O)c3cccc(F)c3)CC2)C1 | 25118 | rising, single point
c1ccc(CNc2ncnc3ccc(-c4ccc5c(c4)OCO5)cc23)cc1 | 31622 | falling, single point
O=C(Nc1ccccc1)[C@@]12C[C@@H]1/C(=N/O)c1ccccc1O2 | 12589 | falling, partial curve, poor fit
Oc1cc2c(cc1O)[C@H](c1ccccc1)CNCC2 | 25118 | rising, single point
Cn1nc(CC(=O)NC2CCCCCC2)c2ccccc2c1=O | 12589 | falling, partial curve
O=c1c(CCc2ccccc2)nc2cncnc2n1Cc1ccccc1 | 6310 | rising, partial curve
Cc1cccc(-n2nc3c(c2NC(=O)c2ccco2)CSC3)c1C | 12589 | rising, partial curve
C=C(C)CCl | 2512 | falling, partial curve, poor fit
CCOC(=O)CCSc1nc2c(c(C(F)(F)F)c1C#N)CCC2 | 158.5 | falling, full curve, poor fit
Cc1cc(C)nc(NC(=NCCc2c[nH]c3ccccc23)NC(=O)c2ccco2)n1 | 3981 | falling, partial curve
Cc1cc(C)cc(N)c1 | 31622 | rising, partial curve
COc1ccc2c(c1OC)C(=O)OC2[C@H]1c2c(cc3c(c2OC)OCO3)CCN1C (stereo partly specified) | 31622 | falling, single point
COc1ccc2c3c1O[C@H]1C[C@H](O)C=C[C@@]31CCN(C)C2 | 25118 | falling, partial curve
Clc1ccc(-c2nn3cnnc3s2)c(Cl)c1 | 631 | falling, single point
O=C(c1ccccc1-c1nc(-c2ccc(F)cc2)no1)N1CCCC1 | 31622 | rising, single point
CCc1nc2ccccc2n1Cc1ccc(OC)c(OC)c1 | 31622 | falling, single point
CCc1ccccc1NC1=NCC(=O)N1Cc1ccccc1 | 10000 | falling, partial curve
CCOc1ccc(Nc2nc(Cc3nnc(SCC(N)=O)o3)cs2)cc1 | 3162 | rising, single point
O=C(OCc1ccc2c(c1)OCO2)c1ccc(S(=O)(=O)N2CCCC2)cc1 | 25118 | rising, single point
O=C(CSc1ccc2nnc(-c3ccccc3)n2n1)N1CCCCC1 | 5012 | rising, single point
COc1ccc(S(=O)(=O)Nc2cc(Cl)ccc2OC)cc1 | 251.2 | falling, partial curve
CCOC(=O)N1CCN(C(=O)CSc2nnc(Cc3cccn3C)n2CCc2ccccc2)CC1 | 316.2 | rising, full curve
C=C(C)COc1ccc(-c2nc(N)nc(C)c2Oc2ccccc2OC)c(O)c1 | 25118 | falling, partial curve, poor fit
COCc1cc(C)nc(N2CCN(c3ccccc3)CC2)c1C#N | 10000 | falling, partial curve
CCOC(=O)N1CCC(N(C(=O)Nc2ccc(Cl)c(Cl)c2)C(C)CC)CC1 (stereo unspecified) | 25118 | rising, single point
CCCOc1cccc(C(=O)Nc2cc(NC(=O)c3ccco3)ccc2OC)c1 | 10000 | falling, partial curve

Repeated from the top, 6 entries:

- Fc1ccc(-c2cc3nc(-c4ccccc4)cc(N4CCN(CCN5CCOCC5)CC4)n3n2)cc1 : AC50 10000 nM (rising, partial curve)
- COc1ccc(CCn2c(SCC(=O)Nc3cc(C)on3)nc3ccsc3c2=O)cc1OC : AC50 5012 nM (rising, partial curve, poor fit)
- CCOc1ccc(-c2nc(C#N)c(NCc3ccc4c(c3)OCO4)o2)cc1 : AC50 6310 nM (falling, partial curve)
- O=c1[nH]c2cc(Cl)cc(Cl)c2[nH]c1=O : AC50 5012 nM (rising, single point)
- CC(C)(CO)Cc1cc(C(C)(C)C)c(O)c(C(C)(C)C)c1 : AC50 25118 nM (falling, partial curve)
- COC(=O)C1=C(C)NC(C)=C([N+](=O)[O-])[C@@H]1c1ccccc1C(F)(F)F : AC50 12589 nM (falling, single point)